Data on one substance can be found in patent publication US20110263509A1 (Haemopep Pharma GmbH, priority 2008, published 2011).

The series can be described thus: general procedure: Fmoc solid-phase peptide synthesis; Wang resin loaded with Fmoc-leucine (0.69 mmol/g, 100-200 mesh); HBTU/HOBt/DIEA in NMP. Conditions: whole synthesis, RP-HPLC peak integration, acetate.

Strings that start with PEPTIDE1 are HELM notation: dots part the residues, brackets hold end groups and non-standard residues.

As to “PEPTIDE1{S.V.S.E.I.Q.L.M.H.N.L.G.K.H.L.N.S.M.E.R.V.E.W.L.R.K.K.L.Q.D.V.H.N.F.V.A.L}$$$$V2.0 [hPTH-1-37]”, the “final HPLC purity” value was “≧98%”.
